Measurements: the supplement of paper PMC12823440, “Inhibitors supercharge kinase turnover through native proteolytic circuits” (Nature, 2025)
The list shows a part of the results. Hit calls seldom repeat between salt and free forms of one compound.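 In K562 cells expressing nanoluciferase-fused kinases, luminescence was recorded at 4 h intervals between 2 and 18 h, normalized as percent of control with DMSO at 100% and a positive control at 0%. A significant (2 sigma) signal drop marks a time point as decreased. The authors' rule for a hit is not shown and takes in more than the number of time points.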

The chains behind the UniProt entries cited, without tags or fusion partners. Where a name states a change or a piece, a line headed by the entry shows the natural chain unless it says otherwise.
UniProt P00519, whole entry: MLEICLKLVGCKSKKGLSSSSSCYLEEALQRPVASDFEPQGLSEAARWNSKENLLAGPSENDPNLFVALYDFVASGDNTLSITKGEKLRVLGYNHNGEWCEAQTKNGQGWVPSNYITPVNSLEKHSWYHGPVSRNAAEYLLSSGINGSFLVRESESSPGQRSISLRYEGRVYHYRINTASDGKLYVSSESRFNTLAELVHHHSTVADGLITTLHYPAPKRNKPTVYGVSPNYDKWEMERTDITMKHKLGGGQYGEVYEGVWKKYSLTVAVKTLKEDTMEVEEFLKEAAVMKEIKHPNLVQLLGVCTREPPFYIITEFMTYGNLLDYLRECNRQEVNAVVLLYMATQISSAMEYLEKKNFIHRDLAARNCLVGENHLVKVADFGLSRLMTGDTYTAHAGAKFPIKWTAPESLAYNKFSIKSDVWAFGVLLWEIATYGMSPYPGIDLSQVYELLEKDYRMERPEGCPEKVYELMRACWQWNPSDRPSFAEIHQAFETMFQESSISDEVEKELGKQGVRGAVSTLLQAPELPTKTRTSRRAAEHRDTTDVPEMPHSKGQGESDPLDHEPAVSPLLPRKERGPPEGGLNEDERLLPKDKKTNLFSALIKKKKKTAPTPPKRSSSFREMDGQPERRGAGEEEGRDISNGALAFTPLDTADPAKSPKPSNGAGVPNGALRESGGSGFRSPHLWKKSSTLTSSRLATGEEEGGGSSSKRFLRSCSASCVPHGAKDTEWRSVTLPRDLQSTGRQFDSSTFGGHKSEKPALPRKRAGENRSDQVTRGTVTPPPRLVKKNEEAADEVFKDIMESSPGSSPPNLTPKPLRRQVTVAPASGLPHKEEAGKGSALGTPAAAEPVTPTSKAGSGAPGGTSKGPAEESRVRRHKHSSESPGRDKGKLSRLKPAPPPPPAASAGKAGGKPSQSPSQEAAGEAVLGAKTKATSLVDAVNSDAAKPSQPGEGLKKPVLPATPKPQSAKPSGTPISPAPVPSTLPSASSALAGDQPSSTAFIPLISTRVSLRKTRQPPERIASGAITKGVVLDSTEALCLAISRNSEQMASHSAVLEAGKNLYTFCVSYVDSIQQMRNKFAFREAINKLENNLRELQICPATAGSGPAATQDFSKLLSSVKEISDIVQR
UniProt P31749: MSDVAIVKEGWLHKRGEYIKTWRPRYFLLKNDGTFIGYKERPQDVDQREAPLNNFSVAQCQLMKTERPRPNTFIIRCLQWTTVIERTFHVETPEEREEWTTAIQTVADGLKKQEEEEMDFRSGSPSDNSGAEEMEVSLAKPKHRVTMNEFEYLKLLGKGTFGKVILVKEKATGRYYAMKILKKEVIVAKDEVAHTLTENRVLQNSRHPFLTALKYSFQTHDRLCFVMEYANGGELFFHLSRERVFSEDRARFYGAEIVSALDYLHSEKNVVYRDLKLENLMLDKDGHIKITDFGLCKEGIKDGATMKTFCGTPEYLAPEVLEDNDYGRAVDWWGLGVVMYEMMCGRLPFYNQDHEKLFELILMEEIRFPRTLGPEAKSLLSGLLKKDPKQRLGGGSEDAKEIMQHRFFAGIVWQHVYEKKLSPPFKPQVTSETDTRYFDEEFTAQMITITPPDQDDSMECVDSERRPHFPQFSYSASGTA
UniProt Q9UM73: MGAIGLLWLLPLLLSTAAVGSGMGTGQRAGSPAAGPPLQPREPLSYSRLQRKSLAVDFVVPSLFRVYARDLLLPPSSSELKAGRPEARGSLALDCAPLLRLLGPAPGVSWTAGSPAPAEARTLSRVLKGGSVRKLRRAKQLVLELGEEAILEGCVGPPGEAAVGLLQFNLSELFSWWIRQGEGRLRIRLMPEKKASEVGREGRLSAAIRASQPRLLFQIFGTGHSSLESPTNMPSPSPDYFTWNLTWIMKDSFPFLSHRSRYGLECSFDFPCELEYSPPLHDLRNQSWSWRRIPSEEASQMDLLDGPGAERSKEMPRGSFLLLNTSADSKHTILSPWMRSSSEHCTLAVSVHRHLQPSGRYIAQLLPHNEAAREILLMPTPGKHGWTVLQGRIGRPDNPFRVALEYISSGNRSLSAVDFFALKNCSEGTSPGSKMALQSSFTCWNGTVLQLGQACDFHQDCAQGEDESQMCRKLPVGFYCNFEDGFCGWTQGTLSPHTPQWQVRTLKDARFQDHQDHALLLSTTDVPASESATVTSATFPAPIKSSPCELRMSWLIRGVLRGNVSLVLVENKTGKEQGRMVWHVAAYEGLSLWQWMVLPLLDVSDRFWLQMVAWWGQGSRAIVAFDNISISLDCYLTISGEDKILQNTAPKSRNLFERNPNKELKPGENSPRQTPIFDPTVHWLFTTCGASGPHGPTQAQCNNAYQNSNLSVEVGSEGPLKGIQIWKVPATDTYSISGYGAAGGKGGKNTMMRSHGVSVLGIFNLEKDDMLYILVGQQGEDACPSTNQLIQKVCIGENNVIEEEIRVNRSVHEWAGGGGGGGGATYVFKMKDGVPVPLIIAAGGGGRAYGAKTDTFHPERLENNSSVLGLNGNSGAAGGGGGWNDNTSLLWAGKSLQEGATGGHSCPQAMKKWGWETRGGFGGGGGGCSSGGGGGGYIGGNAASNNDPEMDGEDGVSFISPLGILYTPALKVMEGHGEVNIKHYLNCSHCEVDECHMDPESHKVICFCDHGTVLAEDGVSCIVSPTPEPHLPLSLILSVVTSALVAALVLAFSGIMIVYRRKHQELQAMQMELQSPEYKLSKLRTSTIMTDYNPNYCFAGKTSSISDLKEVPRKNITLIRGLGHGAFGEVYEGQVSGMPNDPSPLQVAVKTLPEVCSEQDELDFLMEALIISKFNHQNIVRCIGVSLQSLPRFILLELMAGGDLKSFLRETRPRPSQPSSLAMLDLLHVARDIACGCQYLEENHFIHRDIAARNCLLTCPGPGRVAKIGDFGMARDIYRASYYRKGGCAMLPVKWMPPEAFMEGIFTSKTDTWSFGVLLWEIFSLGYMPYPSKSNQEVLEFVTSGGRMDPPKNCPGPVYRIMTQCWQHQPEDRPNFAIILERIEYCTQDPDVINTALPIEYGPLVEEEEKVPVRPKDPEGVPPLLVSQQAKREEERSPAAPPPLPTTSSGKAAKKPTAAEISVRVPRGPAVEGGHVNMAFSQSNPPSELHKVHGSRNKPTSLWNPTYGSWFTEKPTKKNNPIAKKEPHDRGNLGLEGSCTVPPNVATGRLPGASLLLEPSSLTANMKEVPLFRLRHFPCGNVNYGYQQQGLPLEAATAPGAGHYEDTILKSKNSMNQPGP
UniProt P10398: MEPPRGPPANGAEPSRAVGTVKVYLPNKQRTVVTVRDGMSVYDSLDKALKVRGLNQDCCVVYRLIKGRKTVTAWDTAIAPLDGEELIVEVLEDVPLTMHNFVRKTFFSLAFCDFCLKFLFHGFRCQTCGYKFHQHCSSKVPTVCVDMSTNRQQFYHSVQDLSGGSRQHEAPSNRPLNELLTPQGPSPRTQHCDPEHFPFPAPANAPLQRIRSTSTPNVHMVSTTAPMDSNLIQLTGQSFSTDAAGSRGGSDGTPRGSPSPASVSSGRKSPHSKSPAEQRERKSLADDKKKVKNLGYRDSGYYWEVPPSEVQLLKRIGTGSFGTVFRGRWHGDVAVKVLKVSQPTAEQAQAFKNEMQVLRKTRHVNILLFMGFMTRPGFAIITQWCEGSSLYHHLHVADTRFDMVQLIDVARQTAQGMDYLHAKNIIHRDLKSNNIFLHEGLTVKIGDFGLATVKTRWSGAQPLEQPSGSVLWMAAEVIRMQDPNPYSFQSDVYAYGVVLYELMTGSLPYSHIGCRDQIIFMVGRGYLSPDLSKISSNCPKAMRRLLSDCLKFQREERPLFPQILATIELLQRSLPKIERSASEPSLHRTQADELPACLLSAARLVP
UniProt O14965: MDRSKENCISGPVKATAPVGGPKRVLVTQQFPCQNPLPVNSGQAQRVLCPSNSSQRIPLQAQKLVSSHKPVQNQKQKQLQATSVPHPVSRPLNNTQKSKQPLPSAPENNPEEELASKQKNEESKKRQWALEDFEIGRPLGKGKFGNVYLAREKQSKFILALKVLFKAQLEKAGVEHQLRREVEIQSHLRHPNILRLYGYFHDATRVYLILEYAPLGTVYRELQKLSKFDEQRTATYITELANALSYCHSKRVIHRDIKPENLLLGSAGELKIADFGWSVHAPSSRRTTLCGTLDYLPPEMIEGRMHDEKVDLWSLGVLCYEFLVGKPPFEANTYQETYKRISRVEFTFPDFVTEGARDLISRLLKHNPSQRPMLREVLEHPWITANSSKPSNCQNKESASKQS
UniProt Q96GD4, whole entry: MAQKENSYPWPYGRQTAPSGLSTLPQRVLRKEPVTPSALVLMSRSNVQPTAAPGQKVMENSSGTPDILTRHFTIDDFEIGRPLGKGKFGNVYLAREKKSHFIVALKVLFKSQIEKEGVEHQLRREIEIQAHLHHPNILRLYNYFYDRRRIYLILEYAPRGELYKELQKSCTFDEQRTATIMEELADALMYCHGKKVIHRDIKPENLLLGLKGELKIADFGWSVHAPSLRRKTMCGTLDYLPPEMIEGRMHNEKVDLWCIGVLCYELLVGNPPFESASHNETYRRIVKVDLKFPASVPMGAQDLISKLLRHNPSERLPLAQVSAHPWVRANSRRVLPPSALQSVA
UniProt Q9UQB9: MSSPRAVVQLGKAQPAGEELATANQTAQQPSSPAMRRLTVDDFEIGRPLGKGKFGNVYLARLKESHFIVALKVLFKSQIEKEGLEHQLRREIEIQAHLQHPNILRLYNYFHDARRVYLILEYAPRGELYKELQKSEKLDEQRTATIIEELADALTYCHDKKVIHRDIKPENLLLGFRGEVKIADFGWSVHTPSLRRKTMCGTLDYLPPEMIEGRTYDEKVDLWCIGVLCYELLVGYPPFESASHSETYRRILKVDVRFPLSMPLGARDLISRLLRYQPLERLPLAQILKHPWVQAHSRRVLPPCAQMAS
UniProt P51813: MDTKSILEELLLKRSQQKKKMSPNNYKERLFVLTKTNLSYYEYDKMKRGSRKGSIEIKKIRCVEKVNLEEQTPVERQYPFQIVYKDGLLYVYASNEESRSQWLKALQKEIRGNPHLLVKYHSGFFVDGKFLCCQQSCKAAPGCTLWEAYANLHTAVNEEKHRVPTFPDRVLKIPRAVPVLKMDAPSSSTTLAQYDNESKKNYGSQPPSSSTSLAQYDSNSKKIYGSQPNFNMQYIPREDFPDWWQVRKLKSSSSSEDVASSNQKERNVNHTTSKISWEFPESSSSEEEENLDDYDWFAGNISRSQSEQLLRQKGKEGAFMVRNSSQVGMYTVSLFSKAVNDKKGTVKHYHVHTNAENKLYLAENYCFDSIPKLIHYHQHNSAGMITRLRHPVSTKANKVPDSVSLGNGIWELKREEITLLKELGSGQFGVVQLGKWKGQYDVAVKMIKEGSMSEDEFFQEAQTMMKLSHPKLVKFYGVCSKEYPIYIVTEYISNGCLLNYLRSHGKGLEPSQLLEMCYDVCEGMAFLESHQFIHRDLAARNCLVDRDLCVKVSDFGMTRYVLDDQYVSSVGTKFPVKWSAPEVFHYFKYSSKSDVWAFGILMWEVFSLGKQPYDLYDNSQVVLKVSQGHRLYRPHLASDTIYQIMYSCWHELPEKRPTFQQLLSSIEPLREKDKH
UniProt P15056, whole entry, looked up: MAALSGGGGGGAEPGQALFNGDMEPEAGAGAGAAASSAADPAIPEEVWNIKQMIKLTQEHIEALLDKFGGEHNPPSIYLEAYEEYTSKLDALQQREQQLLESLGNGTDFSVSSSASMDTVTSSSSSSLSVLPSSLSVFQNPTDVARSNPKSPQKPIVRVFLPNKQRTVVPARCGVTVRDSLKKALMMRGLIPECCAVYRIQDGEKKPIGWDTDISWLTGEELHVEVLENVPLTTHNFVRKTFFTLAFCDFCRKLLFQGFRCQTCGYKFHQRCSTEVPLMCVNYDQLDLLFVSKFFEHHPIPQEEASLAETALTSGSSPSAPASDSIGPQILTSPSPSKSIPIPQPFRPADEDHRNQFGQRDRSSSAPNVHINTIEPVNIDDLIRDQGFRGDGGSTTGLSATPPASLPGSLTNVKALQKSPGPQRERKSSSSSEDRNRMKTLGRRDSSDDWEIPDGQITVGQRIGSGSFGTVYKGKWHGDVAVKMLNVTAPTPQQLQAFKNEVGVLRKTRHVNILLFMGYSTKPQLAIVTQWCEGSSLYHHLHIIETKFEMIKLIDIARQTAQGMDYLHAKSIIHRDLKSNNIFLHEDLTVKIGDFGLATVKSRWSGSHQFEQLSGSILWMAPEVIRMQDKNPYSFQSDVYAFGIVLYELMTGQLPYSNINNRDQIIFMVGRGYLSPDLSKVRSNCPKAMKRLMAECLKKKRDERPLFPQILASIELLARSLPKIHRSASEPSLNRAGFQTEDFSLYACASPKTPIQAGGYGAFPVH

Legend:
Assay in all cases: kinase-Nluc reporter destabilization hit call (1 = scored as downregulated) (binary); higher = compound decreases kinase abundance
Settings in all cases: K562; 2-18 h
ABL1 = ABL1 (UniProt P00519)
AKT1 = AKT1 (UniProt P31749)
ALK = ALK (UniProt Q9UM73)
ARAF = ARAF (UniProt P10398)
AURKA = AURKA (UniProt O14965)
AURKB = AURKB (UniProt Q96GD4)
AURKC = AURKC (UniProt Q9UQB9)
BLK = BLK (UniProt P51451)
BMX = BMX (UniProt P51813)
BRAF = BRAF (UniProt P15056)

Measured: kinase-Nluc reporter destabilization hit call

Cc1cc([N+](=O)[O-])c(NS(=O)(=O)c2cccc(C(=O)O)c2)cc1-c1cccnc1 [Alofanib] (10 µM)
inactive: ABL1 = 0 | AKT1 = 0 | ALK 0 | ARAF 0 | AURKA 0 | AURKB 0 | AURKC 0 | BLK 0 | BMX 0 | BRAF 0

CC(C)[C@H](CO)Nc1nc(Nc2ccc(C(=O)O)c(Cl)c2)c2ncn(C(C)C)c2n1 [Purvalanol B] (10 µM)
inactive: ABL1 = 0 | AKT1 = 0 | ALK 0 | ARAF 0 | AURKA 0 | AURKB 0 | AURKC 0 | BLK 0 | BMX 0 | BRAF 0

CN(C/C=C/C(=O)Nc1ccc(C(=O)Nc2cccc(Nc3ncc(Cl)c(-c4c[nH]c5ccccc45)n3)c2)cc1)CCCNC(=O)NCCOCCOCCOCCNC(=O)CCCC[C@@H]1SC[C@@H]2NC(=O)N[C@@H]21 (2.5 µM)
inactive: ABL1 = 0 | AKT1 = 0 | ALK 0 | ARAF 0 | AURKA 0 | AURKB 0 | AURKC 0 | BLK 0 | BMX 0 | BRAF 0

O=C(N/N=C/c1ccc([N+](=O)[O-])o1)c1ccc(O)cc1 [Nifuroxazide] (10 µM)
inactive: ABL1 = 0 | AKT1 = 0 | ALK 0 | ARAF 0 | AURKA 0 | AURKB 0 | AURKC 0 | BLK 0 | BMX 0 | BRAF 0

COC(=O)c1cc2c(OC(C)C)cc(OC(C)C)cc2[nH]1 (2.5 µM)
inactive: ABL1 = 0 | AKT1 = 0 | ALK 0 | ARAF 0 | AURKA 0 | AURKB 0 | AURKC 0 | BLK 0 | BMX 0 | BRAF 0

Looked up by compound from the list above (2):
CN(C/C=C/C(=O)Nc1ccc(C(=O)Nc2cccc(Nc3ncc(Cl)c(-c4c[nH]c5ccccc45)n3)c2)cc1)CCCNC(=O)NCCOCCOCCOCCNC(=O)CCCC[C@@H]1SC[C@@H]2NC(=O)N[C@@H]21 (2.5 µM)
inactive: ABL1 = 0 | AKT1 = 0 | ALK 0 | ARAF 0 | AURKA 0 | AURKB 0 | AURKC 0 | BLK 0 | BMX 0 | BRAF 0

COC(=O)c1cc2c(OC(C)C)cc(OC(C)C)cc2[nH]1 (2.5 µM)
inactive: ABL1 = 0 | AKT1 = 0 | ALK 0 | ARAF 0 | AURKA 0 | AURKB 0 | AURKC 0 | BLK 0 | BMX 0 | BRAF 0

Remaining list, next part:

O=C(Nc1nccs1)C(c1cc(F)ccc1O)N1Cc2ccc(-c3ccc(N4CCNCC4)cc3)cc2C1=O (racemic) (10 µM)
inactive: ABL1 = 0 | AKT1 = 0 | ALK 0 | ARAF 0 | AURKA 0 | AURKB 0 | AURKC 0 | BLK 0 | BMX 0 | BRAF 0

Cc1ccc(-c2csc(Cn3nc(CC4OCCCO4)c4ccccc4c3=O)n2)cc1 (10 µM)
inactive: ABL1 = 0 | AKT1 = 0 | ALK 0 | ARAF 0 | AURKA 0 | AURKB 0 | AURKC 0 | BLK 0 | BMX 0 | BRAF 0

C=CC(=O)N[C@H]1CCOC[C@H]1Nc1ncc2cc(-c3c(Cl)c(OC)cc(OC)c3Cl)ccc2n1 [Fisogatinib] (10 µM)
inactive: ABL1 = 0 | AKT1 = 0 | ALK 0 | ARAF 0 | AURKA 0 | AURKB 0 | AURKC 0 | BLK 0 | BMX 0 | BRAF 0

C[C@@H]1CN(Cc2cn[nH]c2-c2ccc(C#N)cc2)CCN1c1ccc(C(F)(F)F)cn1 (2.5 µM)
inactive: ABL1 = 0 | AKT1 = 0 | ALK 0 | ARAF 0 | AURKA 0 | AURKB 0 | AURKC 0 | BLK 0 | BMX 0 | BRAF 0

Cn1cc(-c2ccc3ncc(Cc4ccc5ncccc5c4)n3n2)cn1 (10 µM)
inactive: ABL1 = 0 | AKT1 = 0 | ALK 0 | ARAF 0 | AURKA 0 | AURKB 0 | AURKC 0 | BLK 0 | BMX 0 | BRAF 0

C=CCN(/C=C1/C(=O)O[C@H](COC)[C@@]2(C)C1=C(O)C(=O)C1=C2[C@H](OC(C)=O)C[C@]2(C)C(=O)CC[C@@H]12)CC=C [Sonolisib] (2.5 µM)
inactive: ABL1 = 0 | AKT1 = 0 | ALK 0 | ARAF 0 | AURKA 0 | AURKB 0 | AURKC 0 | BLK 0 | BMX 0 | BRAF 0

CCC(=O)N1CC[C@H](Nc2ncnc3c2CN(c2cnc(OC)c(C(F)(F)F)c2)CC3)C1 [Leniolisib] (10 µM)
inactive: ABL1 = 0 | AKT1 = 0 | ALK 0 | ARAF 0 | AURKA 0 | AURKB 0 | AURKC 0 | BLK 0 | BMX 0 | BRAF 0

COc1ccc(S(=O)(=O)N(CCO)c2ccccc2CN(C)CC=Cc2ccc(Cl)cc2)cc1 (2.5 µM)
inactive: ABL1 = 0 | AKT1 = 0 | ALK 0 | ARAF 0 | AURKA 0 | AURKB 0 | AURKC 0 | BLK 0 | BMX 0 | BRAF 0
